# Data published in paper doi:10.1101/2025.11.17.688911.
# No constants are given. Whether binding was seen depends on the method and setting. Tags and fused reporters may be left off the sequences shown.
# B1: full-length (FL) human MAP9 (GFP::Human MAP9::strepII) (protein, UniProt Q49MG5 1-647)
# chain: MSDEVFSTTLAYTKSPKVTKRTTFQDELIRAITARSARQRSSEYSDDFDSDEIVSLGDFSDTSADENSVNKKMNDFHISDDEEKNPSKLLFLKTNKSNGNITKDEPVCAIKNEEEMAPDGCEDIVVKSFSESQNKDEEFEKDKIKMKPKPRILSIKSTSSAENNSLDTDDHFKPSPRPRSMLKKKSHMEEKDGLEDKETALSEELELHSAPSSLPTPNGIQLEAEKKAFSENLDPEDSCLTSLASSSLKQILGDSFSPGSEGNASGKDPNEEITENHNSLKSDENKENSFSADHVTTAVEKSKESQVTADDLEEEKAKAELIMDDDRTVDPLLSKSQSILISTSATASSKKTIEDRNIKNKKSTNNRASSASARLMTSEFLKKSSSKRRTPSTTTSSHYLGTLKVLDQKPSQKQSIEPDRADNIRAAVYQEWLEKKNVYLHEMHRIKRIESENLRIQNEQKKAAKREEALASFEAWKAMKEKEAKKIAAKKRLEEKNKKKTEEENAARKGEALQAFEKWKEKKMEYLKEKNRKEREYERAKKQKEEETVAEKKKDNLTAVEKWNEKKEAFFKQKEKEKINEKRKEELKRAEKKDKDKQAINEYEKWLENKEKQERIERKQKKRHSFLESEALPPWSPPSRTVFAKVF
# Molecular target: full-length (FL) human MAP9 (GFP::Human MAP9::strepII) (human) (UniProt Q49MG5)
# Test: mass photometry; purified MAP9 in solution; measured mass against the expected monomer mass; both purified
binder,measurement,value
B1,binding,no binding
